According to US20180055868A1, “METHODS AND COMPOSITIONS FOR STIMULATING BONE REGENERATION” (New York University, priority 2012, published 2018):
Some entries share one result that the patent states for a list of compounds. Some ranges recur; such a range may be that of the whole group of compounds.

system: trephined calvarium bone defect; test: Trephined 3 mm calvarial defect, collagen matrix reinjected daily, microCT bone regeneration (Example 2); assay type: in vivo, mice; settings: 2, 4 and 8 week intervals post trephination
Description: In FIG. 2B, the percentage bone regeneration is calculated as the percent of the original defect that was now filled with bone.
A 3 mm portion of the calvarium was trephined with a drill followed by implantation of a collagen matrix soaked in either a vehicle or a pharmacologic agent and/or receptor antagonists to promote bone regeneration. The matrix was reinjected daily with the agent for periods ranging from 2-8 weeks prior to harvest of the mice and examination of the calvaria. […] Experiments were performed with specific agonists and antagonists at varying doses, and specific receptor agonists were tested on corresponding knockout mice to better confirm the role of the indicated receptor.
Some of the calvaria were decalcified, and histochemical and immunohistochemical staining and microscopic analyses were performed. Other calvaria were cleaned of adherent tissue and subject to microCT analysis for bone defect size and percent regeneration measures.

Row | Structure (SMILES) | time after which effects on bone regeneration are first detectable
1 | CCNC(=O)[C@H]1O[C@@H](n2cnc3c(N)nc(NCCc4ccc(CCC(=O)O)cc4)nc32)[C@H](O)[C@@H]1O [CGS21680] | 2-4 weeks
2 | CCCn1c(=O)c2[nH]c(C3CCCC3)nc2n(CCC)c1=O [DPCPX, 8-Cyclopentyl-1,3-dipropylxanthine] | 2-4 weeks
3 | OCCN(CCO)c1nc(N2CCCCC2)c2nc(N(CCO)CCO)nc(N3CCCCC3)c2n1 [dipyridamole] | 2-4 weeks
